Reference: article doi:10.1101/2020.05.19.104463

Molecular target: T1, GFP-RAB13(T22N) (human) (UniProt P51153)
T1 sequence: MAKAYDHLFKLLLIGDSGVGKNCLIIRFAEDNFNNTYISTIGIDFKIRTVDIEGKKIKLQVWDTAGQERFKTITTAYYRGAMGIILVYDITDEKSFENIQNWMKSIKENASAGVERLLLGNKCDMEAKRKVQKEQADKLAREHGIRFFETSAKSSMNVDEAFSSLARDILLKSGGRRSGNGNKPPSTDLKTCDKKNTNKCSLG
Test: affinity purification with mass spectrometry

- binding: binds
B1: RABIF/MSS4 (protein, UniProt P47224 1-123)
chain: MEPAEQPSELVSAEGRNRKAVLCQRCGSRVLQPGTALFSRRQLFLPSMRKKPALSDGSNPDGDLLQEHWLVEDMFIFENVGFTKDVGNIKFLVCADCEIGPIGWHCLDDKNSFYVALERVSHE

Results are given in words; binding and its absence hold for the method and conditions named. In cells and extracts the contact can be indirect. A yes stands for co-enrichment or nearness to the bait. Other partners may have been found. Sequences can lack the tags named with a protein.
